Some of the results follow.
Assays:
Assay in all cases: log2 fold change, soluble protein after heating vs DMSO (PISA); higher = thermal stabilisation; K562 lysate, 10 uM; active = over 0.2 and 3.5 SD of the protein, either way, in both replicates (recomputed)
[1] = compound: CCCS(=O)(=O)Nc1ccc(F)c(C(=O)c2c[nH]c3ncc(-c4ccc(Cl)cc4)cc23)c1F [vemurafenib]
In short: (§1)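 Log-two fold change in thermal stability relative to solvent controls is reported from duplicates. For each sample, crude K562 extract from dounce-homogenised pellets in PBS pH 7.4 with 1 mM MgCl2, at 1 mg/mL protein, was treated with 10 μM compound for 30 min. Aliquots heated for 3 min across 48°C-58°C were pooled, brought to 0.5% NP-40 at 4°C and cleared at 21,000xg for 90 min. The supernatant was quantified by TMTpro 16plex LC-MS/MS with channel sums equalised.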

Chains of the proteins cited; added tags and fusions are not shown. Lines headed by an entry give the natural chain unless they say otherwise; changes in a name come on top.
UniProt Q96AJ9: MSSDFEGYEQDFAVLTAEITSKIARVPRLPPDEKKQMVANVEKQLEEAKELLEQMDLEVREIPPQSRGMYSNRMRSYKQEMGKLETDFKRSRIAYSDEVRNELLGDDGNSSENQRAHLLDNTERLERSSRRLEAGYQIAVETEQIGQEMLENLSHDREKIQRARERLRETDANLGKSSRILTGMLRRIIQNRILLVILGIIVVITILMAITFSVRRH
UniProt Q96S55: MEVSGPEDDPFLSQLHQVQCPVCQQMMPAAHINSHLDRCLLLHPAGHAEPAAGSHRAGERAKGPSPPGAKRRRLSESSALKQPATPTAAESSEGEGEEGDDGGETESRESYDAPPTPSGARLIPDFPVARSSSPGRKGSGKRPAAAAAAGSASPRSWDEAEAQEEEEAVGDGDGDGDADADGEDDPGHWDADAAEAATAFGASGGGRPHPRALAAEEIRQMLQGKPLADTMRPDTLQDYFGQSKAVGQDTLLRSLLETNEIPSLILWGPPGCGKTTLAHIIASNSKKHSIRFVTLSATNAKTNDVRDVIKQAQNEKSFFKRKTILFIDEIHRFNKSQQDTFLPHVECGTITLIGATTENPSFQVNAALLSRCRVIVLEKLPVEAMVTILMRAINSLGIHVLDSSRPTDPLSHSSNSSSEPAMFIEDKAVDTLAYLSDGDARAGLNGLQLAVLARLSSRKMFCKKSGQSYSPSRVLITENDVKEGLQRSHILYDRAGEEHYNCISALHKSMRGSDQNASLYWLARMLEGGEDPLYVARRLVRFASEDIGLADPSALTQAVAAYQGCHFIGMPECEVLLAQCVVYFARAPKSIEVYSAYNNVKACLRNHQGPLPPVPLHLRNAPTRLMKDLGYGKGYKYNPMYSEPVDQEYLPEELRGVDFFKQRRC
UniProt P57081: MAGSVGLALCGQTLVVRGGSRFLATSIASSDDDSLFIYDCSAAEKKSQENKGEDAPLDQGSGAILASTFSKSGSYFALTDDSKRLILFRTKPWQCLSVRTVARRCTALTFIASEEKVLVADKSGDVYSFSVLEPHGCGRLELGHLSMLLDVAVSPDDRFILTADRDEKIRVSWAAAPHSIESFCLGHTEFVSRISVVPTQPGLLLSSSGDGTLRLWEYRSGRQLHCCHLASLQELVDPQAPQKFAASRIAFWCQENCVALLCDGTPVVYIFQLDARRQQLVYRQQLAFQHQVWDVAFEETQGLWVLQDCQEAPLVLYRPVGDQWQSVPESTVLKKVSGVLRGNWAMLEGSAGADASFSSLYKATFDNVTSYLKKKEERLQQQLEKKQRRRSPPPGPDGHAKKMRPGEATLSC
UniProt Q6UXN9, whole entry, looked up: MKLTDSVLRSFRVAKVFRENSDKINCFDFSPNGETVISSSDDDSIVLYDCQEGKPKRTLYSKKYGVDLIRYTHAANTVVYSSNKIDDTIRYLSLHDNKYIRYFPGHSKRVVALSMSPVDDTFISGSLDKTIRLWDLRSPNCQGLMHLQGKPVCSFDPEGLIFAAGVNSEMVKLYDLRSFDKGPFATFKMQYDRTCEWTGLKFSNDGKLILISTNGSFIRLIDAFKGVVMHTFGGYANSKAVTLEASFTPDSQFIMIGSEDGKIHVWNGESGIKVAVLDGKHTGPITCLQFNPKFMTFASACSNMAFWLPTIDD
UniProt Q96GC9: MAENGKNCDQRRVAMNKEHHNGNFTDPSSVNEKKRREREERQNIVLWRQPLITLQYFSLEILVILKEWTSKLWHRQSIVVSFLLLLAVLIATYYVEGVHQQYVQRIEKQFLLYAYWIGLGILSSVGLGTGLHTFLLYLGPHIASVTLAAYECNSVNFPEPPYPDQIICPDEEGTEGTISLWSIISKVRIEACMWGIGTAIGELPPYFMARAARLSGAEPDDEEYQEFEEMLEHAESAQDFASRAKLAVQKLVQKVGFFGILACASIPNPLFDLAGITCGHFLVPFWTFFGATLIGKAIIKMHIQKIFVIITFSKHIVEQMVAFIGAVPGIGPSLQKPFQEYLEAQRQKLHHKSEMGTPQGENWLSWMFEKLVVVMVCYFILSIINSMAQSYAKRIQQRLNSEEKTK
UniProt Q8N2E2: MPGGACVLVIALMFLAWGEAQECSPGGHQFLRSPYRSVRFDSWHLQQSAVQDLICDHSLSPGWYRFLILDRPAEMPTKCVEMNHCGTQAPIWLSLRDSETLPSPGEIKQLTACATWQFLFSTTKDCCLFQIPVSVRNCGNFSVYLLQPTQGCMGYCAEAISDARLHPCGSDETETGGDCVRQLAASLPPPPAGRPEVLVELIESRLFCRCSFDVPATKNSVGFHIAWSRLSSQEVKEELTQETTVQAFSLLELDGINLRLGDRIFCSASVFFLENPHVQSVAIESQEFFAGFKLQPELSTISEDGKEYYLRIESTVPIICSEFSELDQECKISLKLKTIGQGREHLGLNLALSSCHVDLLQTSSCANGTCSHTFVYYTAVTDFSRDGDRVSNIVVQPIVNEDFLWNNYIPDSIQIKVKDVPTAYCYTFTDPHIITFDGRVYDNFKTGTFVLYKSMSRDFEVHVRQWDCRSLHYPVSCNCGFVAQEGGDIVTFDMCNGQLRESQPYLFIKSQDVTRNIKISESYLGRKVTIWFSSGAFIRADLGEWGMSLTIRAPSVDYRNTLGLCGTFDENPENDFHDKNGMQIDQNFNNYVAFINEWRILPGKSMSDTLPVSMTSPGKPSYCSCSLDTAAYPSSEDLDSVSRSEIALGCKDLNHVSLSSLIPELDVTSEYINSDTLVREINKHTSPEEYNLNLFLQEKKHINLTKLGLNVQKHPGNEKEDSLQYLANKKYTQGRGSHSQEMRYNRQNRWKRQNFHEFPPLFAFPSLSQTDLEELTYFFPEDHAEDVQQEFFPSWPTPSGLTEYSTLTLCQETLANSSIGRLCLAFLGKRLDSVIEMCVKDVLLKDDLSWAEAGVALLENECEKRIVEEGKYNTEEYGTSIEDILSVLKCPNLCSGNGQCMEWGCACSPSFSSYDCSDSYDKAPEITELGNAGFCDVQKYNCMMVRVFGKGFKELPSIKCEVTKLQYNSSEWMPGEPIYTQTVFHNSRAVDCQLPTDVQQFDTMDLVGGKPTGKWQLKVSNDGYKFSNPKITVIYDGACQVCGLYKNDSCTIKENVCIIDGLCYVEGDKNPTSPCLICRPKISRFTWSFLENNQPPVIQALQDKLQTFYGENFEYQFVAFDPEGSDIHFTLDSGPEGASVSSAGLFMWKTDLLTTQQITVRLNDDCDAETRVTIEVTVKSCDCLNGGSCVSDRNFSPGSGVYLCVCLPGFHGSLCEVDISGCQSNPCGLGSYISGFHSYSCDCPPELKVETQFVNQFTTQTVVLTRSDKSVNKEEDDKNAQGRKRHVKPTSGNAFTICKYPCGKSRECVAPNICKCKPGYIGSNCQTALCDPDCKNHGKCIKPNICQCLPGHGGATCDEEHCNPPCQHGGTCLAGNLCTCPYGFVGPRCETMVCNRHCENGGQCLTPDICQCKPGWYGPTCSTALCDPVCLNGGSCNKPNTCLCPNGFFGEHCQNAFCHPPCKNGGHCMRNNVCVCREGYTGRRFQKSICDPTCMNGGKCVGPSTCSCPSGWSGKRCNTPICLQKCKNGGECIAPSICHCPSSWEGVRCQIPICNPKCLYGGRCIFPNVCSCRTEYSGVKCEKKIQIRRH
UniProt Q9Y4E6, whole entry, looked up: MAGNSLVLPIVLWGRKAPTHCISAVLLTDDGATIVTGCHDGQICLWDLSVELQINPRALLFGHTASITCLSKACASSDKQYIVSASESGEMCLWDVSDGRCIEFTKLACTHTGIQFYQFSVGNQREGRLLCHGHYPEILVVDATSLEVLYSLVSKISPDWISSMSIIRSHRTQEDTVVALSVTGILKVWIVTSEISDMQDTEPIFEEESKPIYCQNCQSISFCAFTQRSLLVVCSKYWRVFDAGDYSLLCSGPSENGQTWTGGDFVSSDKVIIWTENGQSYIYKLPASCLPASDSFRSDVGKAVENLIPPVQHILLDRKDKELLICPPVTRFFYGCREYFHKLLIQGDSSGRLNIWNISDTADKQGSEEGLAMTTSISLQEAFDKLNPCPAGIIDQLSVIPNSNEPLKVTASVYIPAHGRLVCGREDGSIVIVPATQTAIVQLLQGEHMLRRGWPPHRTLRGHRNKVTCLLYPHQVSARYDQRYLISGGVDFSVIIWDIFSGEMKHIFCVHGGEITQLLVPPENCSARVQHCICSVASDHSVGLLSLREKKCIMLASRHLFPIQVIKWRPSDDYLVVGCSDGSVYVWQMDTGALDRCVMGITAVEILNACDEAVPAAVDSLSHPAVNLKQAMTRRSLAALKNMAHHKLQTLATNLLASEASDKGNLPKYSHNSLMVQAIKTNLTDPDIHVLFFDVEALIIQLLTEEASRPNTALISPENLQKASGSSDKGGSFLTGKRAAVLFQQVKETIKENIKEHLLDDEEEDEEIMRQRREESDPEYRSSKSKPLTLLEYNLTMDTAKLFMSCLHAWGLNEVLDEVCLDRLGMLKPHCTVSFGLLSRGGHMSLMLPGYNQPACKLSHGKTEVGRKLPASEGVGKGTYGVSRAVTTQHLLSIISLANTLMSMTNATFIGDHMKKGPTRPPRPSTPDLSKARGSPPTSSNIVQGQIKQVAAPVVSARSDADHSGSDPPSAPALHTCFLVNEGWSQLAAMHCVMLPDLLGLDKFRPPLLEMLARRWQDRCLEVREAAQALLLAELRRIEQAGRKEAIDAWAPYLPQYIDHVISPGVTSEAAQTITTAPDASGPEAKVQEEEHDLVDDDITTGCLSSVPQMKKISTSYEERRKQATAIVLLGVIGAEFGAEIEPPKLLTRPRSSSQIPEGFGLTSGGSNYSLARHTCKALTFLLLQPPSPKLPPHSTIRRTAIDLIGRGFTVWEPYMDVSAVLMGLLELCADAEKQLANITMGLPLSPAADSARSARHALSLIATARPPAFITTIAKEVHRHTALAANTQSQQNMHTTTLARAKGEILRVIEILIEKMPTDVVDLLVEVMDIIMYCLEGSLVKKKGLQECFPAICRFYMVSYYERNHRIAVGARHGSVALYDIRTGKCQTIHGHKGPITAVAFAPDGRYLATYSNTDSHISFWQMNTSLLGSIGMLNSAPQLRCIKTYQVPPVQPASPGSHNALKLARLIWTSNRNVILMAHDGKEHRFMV
UniProt Q9C0J8: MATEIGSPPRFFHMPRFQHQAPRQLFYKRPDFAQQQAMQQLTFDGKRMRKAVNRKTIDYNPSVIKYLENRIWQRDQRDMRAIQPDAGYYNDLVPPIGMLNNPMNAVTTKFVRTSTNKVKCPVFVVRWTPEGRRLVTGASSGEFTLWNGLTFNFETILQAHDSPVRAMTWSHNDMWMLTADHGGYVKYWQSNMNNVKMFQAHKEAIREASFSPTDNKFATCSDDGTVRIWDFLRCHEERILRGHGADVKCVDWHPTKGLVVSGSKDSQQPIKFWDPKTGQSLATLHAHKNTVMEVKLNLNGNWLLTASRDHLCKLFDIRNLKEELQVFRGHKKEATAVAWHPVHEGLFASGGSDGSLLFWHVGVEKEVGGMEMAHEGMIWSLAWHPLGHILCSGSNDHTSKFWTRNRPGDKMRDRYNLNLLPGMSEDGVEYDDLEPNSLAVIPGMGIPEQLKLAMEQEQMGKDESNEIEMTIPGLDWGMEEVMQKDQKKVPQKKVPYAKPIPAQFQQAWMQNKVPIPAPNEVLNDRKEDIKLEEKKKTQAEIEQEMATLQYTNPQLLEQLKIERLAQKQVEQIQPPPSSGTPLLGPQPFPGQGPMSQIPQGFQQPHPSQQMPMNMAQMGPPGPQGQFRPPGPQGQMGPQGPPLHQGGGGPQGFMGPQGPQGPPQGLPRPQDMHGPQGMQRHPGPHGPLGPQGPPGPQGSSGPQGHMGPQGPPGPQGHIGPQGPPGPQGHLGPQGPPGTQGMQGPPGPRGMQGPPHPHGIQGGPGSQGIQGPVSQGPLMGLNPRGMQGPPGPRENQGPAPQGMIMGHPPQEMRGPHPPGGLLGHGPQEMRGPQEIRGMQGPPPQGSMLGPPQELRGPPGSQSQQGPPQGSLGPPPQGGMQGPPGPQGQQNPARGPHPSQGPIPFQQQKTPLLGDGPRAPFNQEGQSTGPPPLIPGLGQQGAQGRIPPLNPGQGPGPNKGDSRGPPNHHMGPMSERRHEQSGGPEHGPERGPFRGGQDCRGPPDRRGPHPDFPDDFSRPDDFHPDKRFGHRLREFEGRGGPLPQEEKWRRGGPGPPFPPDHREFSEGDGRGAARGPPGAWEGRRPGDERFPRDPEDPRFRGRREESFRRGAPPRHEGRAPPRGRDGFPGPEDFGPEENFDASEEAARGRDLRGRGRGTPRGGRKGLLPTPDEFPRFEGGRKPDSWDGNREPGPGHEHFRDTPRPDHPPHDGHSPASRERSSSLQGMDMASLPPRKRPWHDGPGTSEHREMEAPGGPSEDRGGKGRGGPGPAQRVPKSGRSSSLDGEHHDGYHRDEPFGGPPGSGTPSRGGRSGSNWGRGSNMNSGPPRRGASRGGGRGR

[2] = compound: CCCS(=O)(=O)Nc1ccc(F)c(C(=O)c2c[nH]c3ncc(Cl)cc23)c1F
In short: as §1

[3] = compound: CCN(CCCOc1ccc2c(Nc3cc(CC(=O)Nc4cccc(F)c4)[nH]n3)ncnc2c1)CCOP(=O)(O)O [barasertib]
In short: as §1

[4] = compound: CC[C@@H]1C(=O)N(C)c2cnc(Nc3ccc(C(=O)NC4CCN(C)CC4)cc3OC)nc2N1C1CCCC1
In short: as §1

[5] = compound: CC[C@@H]1C(=O)N(C)c2cnc(Nc3ccc(C(=O)N[C@H]4CC[C@H](N5CCN(CC6CC6)CC5)CC4)cc3OC)nc2N1C(C)C [volasertib]
In short: as §1

[6] = compound: CCn1c(C(=O)N(C2CC2)C2CC2)cc2c3c(ncn3C)c(Nc3cc(C)n(C)n3)nc21
In short: as §1

[7] = compound: CCn1cc(-c2ccnc3[nH]c(-c4cccc(CN(C)C)c4)cc23)c(-c2ccc(NC(=O)N(C)C)cc2)n1
In short: as §1

[8] = compound: CN1CCC(CNc2ccc3ncc(-c4cccc(OC(F)(F)F)c4)n3n2)CC1
In short: as §1

[9] = compound: CN1CCN(CCOc2cc(OC3CCOCC3)c3c(Nc4c(Cl)ccc5c4OCO5)ncnc3c2)CC1 [saracatinib]
In short: as §1

[10] = compound: CN1CCN(c2nc(C3=C(c4c[nH]c5ccccc45)C(=O)NC3=O)c3ccccc3n2)CC1 [sotrastaurin]
In short: as §1

Measured: log2 fold change

VTI1A (UniProt Q96AJ9)
inactive: [1] 0.01 | [2] 0.032 | [3] -0.003 | [4] -0.03 | [5] -0.024 | [6] 0.008 | [7] 0.041 | [8] -0.043 | [9] -0.039 | [10] -0.008

WDFY1 (UniProt Q8IWB7)
inactive: [1] 0.04 | [2] -0.001 | [3] 0.014 | [4] 0.01 | [5] 0.008 | [6] -0.018 | [7] -0.021 | [8] 0.11 | [9] -0.013 | [10] 0.021

WIZ isoform 3 (UniProt O95785)
inactive: [1] 0.005 | [2] 0.021 | [3] 0.033 | [4] 0.037 | [5] 0.009 | [6] 0.013 | [7] -0.019 | [8] 0.06 | [9] -0.009 | [10] 0.013

WAC (UniProt Q9BTA9)
inactive: [1] 0.018 | [2] 0.051 | [3] 0.077 | [4] 0 | [5] -0.003 | [6] 0.051 | [7] 0.061 | [8] 0.024 | [9] 0.013 | [10] -0.002

WIPF1 isoform 3 (UniProt O43516)
inactive: [1] 0.017 | [2] 0.046 | [3] 0.153 | [4] 0.027 | [5] 0.058 | [6] -0.051 | [7] -0.218 | [8] -0.002 | [9] 0.076 | [10] 0.028

VPS11 (UniProt Q9H270)
inactive: [1] -0.002 | [2] 0.034 | [3] 0.013 | [4] -0.033 | [5] -0.038 | [6] 0.015 | [7] -0.051 | [8] -0.007 | [9] 0.039 | [10] 0.019

VTN (UniProt P04004)
inactive: [1] 0.029 | [2] 0.058 | [3] 0.043 | [4] 0.063 | [5] -0.001 | [6] 0.011 | [8] 0.289 | [9] 0.075 | [10] -0.012
active: [7] -0.615

WASH2P (UniProt Q6VEQ5)
inactive: [1] -0.016 | [2] 0.004 | [3] 0.011 | [4] -0.043 | [5] -0.015 | [6] 0.02 | [7] 0.02 | [8] -0.03 | [9] -0.013 | [10] -0.014

VTA1 (UniProt Q9NP79)
inactive: [1] -0.062 | [2] 0.013 | [3] -0.024 | [4] -0.05 | [5] -0.014 | [6] -0.01 | [7] 0.055 | [8] -0.063 | [9] 0.004 | [10] -0.005

WRNIP1 (UniProt Q96S55)
inactive: [1] 0.036 | [2] 0.042 | [3] 0.064 | [4] -0.114 | [5] -0.128 | [6] 0.014 | [7] -0.026 | [8] 0.03 | [9] -0.006 | [10] 0.042

VPS13A (UniProt Q96RL7)
inactive: [1] 0.001 | [2] 0.03 | [3] 0.084 | [4] 0.119 | [5] -0.045 | [6] -0.043 | [7] -0.001 | [8] -0.069 | [9] 0.041 | [10] 0.092

WIPF3 (UniProt A6NGB9)
inactive: [1] -0.067 | [2] 0.006 | [3] -0.006 | [4] 0.126 | [5] 0.025 | [6] -0.029 | [7] 0.009 | [8] 0.016 | [9] 0.027 | [10] -0.005

WDR12 (UniProt Q9GZL7)
inactive: [1] -0.02 | [2] 0.001 | [3] -0.021 | [4] 0.005 | [5] 0.033 | [6] -0.018 | [7] -0.052 | [8] 0.047 | [9] -0.009 | [10] 0.009

WDR62 isoform 4 (UniProt O43379)
inactive: [1] 0.004 | [2] 0.065 | [3] 0.031 | [4] -0.063 | [5] 0 | [6] 0.003 | [7] -0.009 | [8] -0.044 | [9] 0.04 | [10] 0.031

WASHC3 (UniProt Q9Y3C0)
inactive: [1] -0.009 | [2] -0.015 | [3] -0.059 | [4] 0.099 | [5] 0.033 | [6] -0.047 | [7] -0.003 | [8] -0.035 | [9] -0.007 | [10] 0.009

WDR45B (UniProt Q5MNZ6)
inactive: [1] 0 | [2] 0.005 | [3] -0.01 | [4] 0.054 | [5] 0.027 | [6] 0.034 | [7] -0.021 | [8] 0.024 | [9] 0.029 | [10] -0.017

WDR4 (UniProt P57081)
inactive: [1] -0.044 | [2] 0.001 | [3] -0.015 | [4] 0.042 | [5] -0.011 | [6] -0.014 | [7] 0.083 | [8] -0.001 | [9] 0.004 | [10] 0.032

VKORC1L1, A0A3B3ISV4
inactive: [1] -0.023 | [2] -0.046 | [3] 0.136 | [4] -0.162 | [5] 0.028 | [6] 0.033 | [7] -0.116 | [8] 0.022 | [9] -0.016 | [10] -0.052

WDR82 (UniProt Q6UXN9)
inactive: [1] -0.007 | [2] 0.018 | [3] -0.006 | [4] -0.027 | [5] 0.002 | [6] -0.036 | [7] 0.004 | [8] 0.004 | [9] 0.012 | [10] -0.025

WDR70 (UniProt Q9NW82)
inactive: [1] -0.004 | [2] 0.042 | [3] -0.018 | [4] 0.016 | [5] 0.012 | [6] 0.053 | [7] -0.022 | [8] -0.006 | [9] -0.024 | [10] 0.001

WDR77 (UniProt Q9BQA1)
inactive: [1] -0.095 | [2] -0.012 | [3] -0.045 | [4] -0.029 | [5] 0.004 | [6] 0.022 | [7] -0.004 | [8] 0.011 | [9] -0.032 | [10] 0.001

VMP1 (UniProt Q96GC9)
inactive: [1] 0.027 | [2] 0.033 | [3] -0.061 | [4] 0.063 | [5] 0.001 | [6] -0.119 | [7] -0.359 | [8] 0.05 | [9] 0.014 | [10] 0.141

VWDE (UniProt Q8N2E2)
inactive: [1] -0.033 | [2] 0.043 | [3] -0.048 | [4] 0.041 | [5] 0.08 | [6] -0.019 | [7] 0 | [8] 0.004 | [9] -0.006 | [10] 0.012

WDR13 (UniProt Q9H1Z4)
inactive: [1] -0.001 | [2] 0.063 | [3] 0.012 | [4] -0.017 | [5] -0.014 | [6] 0.008 | [7] -0.012 | [8] 0.052 | [9] 0.033 | [10] -0.031

WDR3 (UniProt Q9UNX4)
inactive: [1] -0.01 | [2] 0.011 | [3] 0.042 | [4] -0.063 | [5] -0.043 | [6] 0.01 | [7] -0.024 | [8] 0.019 | [9] 0.002 | [10] 0.062

WASHC5 (UniProt Q12768)
inactive: [1] 0.031 | [2] 0.036 | [3] 0.007 | [4] 0.006 | [5] -0.035 | [6] -0.01 | [7] -0.057 | [8] 0.003 | [9] -0.007 | [10] 0.006

WDR7 (UniProt Q9Y4E6)
inactive: [1] -0.005 | [2] -0.035 | [3] -0.019 | [4] -0.041 | [5] -0.057 | [6] 0.029 | [7] -0.007 | [8] 0.047 | [9] -0.018 | [10] 0.01

WDR33 (UniProt Q9C0J8)
inactive: [1] 0.027 | [2] -0.01 | [3] 0.048 | [4] 0.042 | [5] 0.021 | [6] 0.018 | [7] -0.016 | [8] -0.016 | [9] 0.027 | [10] 0.02

VRK2 (UniProt Q86Y07)
inactive: [1] 0.113 | [2] 0.148 | [3] 0.048 | [4] -0.032 | [5] -0.008 | [6] 0.01 | [7] -0.104 | [8] 0.182 | [9] -0.022 | [10] 0.151

VPS36 (UniProt Q86VN1)
inactive: [1] 0.003 | [2] 0.006 | [3] 0.007 | [4] -0.014 | [5] -0.013 | [6] -0.005 | [7] -0.125 | [8] 0.013 | [9] -0.018 | [10] 0.047

Copied from the entries so far (2 entries):
VRK2 (UniProt Q86Y07)
inactive: [1] 0.113 | [2] 0.148 | [3] 0.048 | [4] -0.032 | [5] -0.008 | [6] 0.01 | [7] -0.104 | [8] 0.182 | [9] -0.022 | [10] 0.151

VPS36 (UniProt Q86VN1)
inactive: [1] 0.003 | [2] 0.006 | [3] 0.007 | [4] -0.014 | [5] -0.013 | [6] -0.005 | [7] -0.125 | [8] 0.013 | [9] -0.018 | [10] 0.047

From the supplement of paper PMC10849652
